PubChem BioAssay AID504834 (National Center for Advancing Translational Sciences (NCATS), 2011)
About 22,000 (6.9%) of roughly 320,000 compounds were called active. The inconclusive results got no clear call from the source; some entries with a clear call stand among them for comparison. Calls follow the shape of the dose curve; as a rule, active = well fitted inhibition curve with a large enough effect; inconclusive = small, poorly fitted or top-dose-only effect, or another doubt; inactive = no such curve, though single readings can be large or run the other way. Where the call is inconclusive, the potency comes from a doubtful curve fit.

Assay: Primary qHTS for delayed death inhibitors of the malarial parasite plastid, 96 hour incubation
Details: P. falciparum luciferase reporter growth; series mostly up to 28.7 µM; activity change, negative = inhibition: at the top concentration
Procedure, shortened: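 Compounds incubated with erythrocytes infected by luciferase-expressing P. falciparum (2% hematocrit, 0.05% parasitemia final) for 96 hours, 37 C in 5% CO2. Growth inhibition scored as decreased luciferase luminescence.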
% is scaled to controls: 0 for no effect and ±100 for the full control effect; potency is read from the fitted curve at half-maximal effect.

Row | SMILES | activity change, negative = inhibition | Potency
1 | COc1ccc(NC(=O)N2CC(C)OC(C)C2)cc1OC (stereo not given) | inactive: 5.47% | –
2 | COc1ccc(C(=O)CSc2nnc(-c3ccc(S(=O)(=O)N4CCOCC4)cc3)o2)cc1 | – | inconclusive: 8.28 µM [inhibitor, partial curve, poor fit]
3 | CCOC(=O)c1cc(-c2cccc(C(F)(F)F)c2)nc2nc(SC)[nH]c(=O)c12 | – | inconclusive: 18.5 µM [inhibitor, single point]
4 | COc1ccc(Cl)cc1NC(=O)CN(C)CC(=O)Nc1cc(OC)c(OC)c(OC)c1 | – | inconclusive: 8.28 µM [inhibitor, partial curve, poor fit]
5 | Cc1ccc(C)c(NS(=O)(=O)c2ccc(OCC(=O)NCc3cccnc3)cc2)c1 | inactive: 5.79% | –
6 | COc1cccc(Cn2cc(C)cc(NC(=O)NCc3ccccc3)c2=O)c1 | – | inconclusive: 18.5 µM [inhibitor, single point]
7 | Cc1ccccc1NC(=O)CCCNC(=O)c1ccc(Cl)cc1 | inactive: 10.7% | –
8 | COc1ccc(CN(Cc2cc3cc(C)ccc3[nH]c2=O)C(=O)N(C)C)cc1 | – | inconclusive: 1.04 µM [inhibitor, partial curve, poor fit]
9 | CCc1cccc(C)c1NC(=O)C(c1ccccc1)N1CCC1=O (stereo not given) | inactive: 16.9% | –
10 | Cc1cccc(C(=O)OCC(=O)c2cccc(Br)c2)c1O | inactive: -1.11% | –
11 | CCOc1ccc(S(=O)(=O)N2CCN(c3ncccn3)CC2)cc1 | – | inconclusive: 18.5 µM [inhibitor, single point]
12 | COc1ccc(C2C(C(=O)NCc3ccco3)CCC(=O)N2c2ccc(OC)cc2)cc1 (stereo not given) | – | inconclusive: 13.1 µM [inhibitor, single point]
13 | O=C(NCCO)C(=O)Nc1cc2c3c(c1)CCN3C(=O)CC2 | inactive: 33.5% | –
14 | CCC(C(=O)NC1CCCC1)N(C(=O)Cn1nnc(-c2ccc(C)o2)n1)c1ccc(OC)c(OC)c1 (stereo not given) | inactive: -18.7% | –
15 | COc1cc2c(cc1OC)CN(C(=S)Nc1ccc(OC(F)F)cc1)CC2 | – | inconclusive: 18.5 µM [inhibitor, single point]
16 | O=C(Cn1nnc2ccccc21)N/N=C/c1ccco1 | – | inconclusive: 18.5 µM [inhibitor, single point]
17 | CCN(CC)S(=O)(=O)c1cccc(C(=O)Nc2cc(C)on2)c1 | – | inconclusive: 11.7 µM [inhibitor, single point]
18 | OC(CNCc1ccco1)Cn1c2ccccc2c2ccccc21 (stereo not given) | inactive: 4.82% | –
19 | CC(NC(=O)COc1cccnc1[N+](=O)[O-])c1ccc(Cl)cc1Cl (stereo not given) | inactive: 8.65% | –
20 | CCc1nc(Nc2ccccc2F)c2oc3ccccc3c2n1 | – | inconclusive: 6.57 µM [inhibitor, single point]
21 | O=C(Nc1ccc(F)cc1F)Nc1sccc1-c1nc2ccccc2s1 | – | inconclusive: 14.7 µM [inhibitor, single point]
22 | C=CCC(Nc1ccccc1)c1ccc(OC)c(OC)c1 (stereo not given) | – | inconclusive: 5.22 µM [inhibitor, partial curve]
23 | CCOC(=O)N1CCN(C(=O)c2ccc(Cn3c(=S)[nH]c4cc(C(=O)OC)ccc4c3=O)cc2)CC1 | – | inconclusive: 14.7 µM [inhibitor, partial curve]
24 | O=C(c1ccsc1)N1CCCC(N2CCN(c3cccc(Cl)c3)CC2)C1 (stereo not given) | inactive: 4.85% | –

One compound at a time, as listed above:
`O=C(c1ccsc1)N1CCCC(N2CCN(c3cccc(Cl)c3)CC2)C1` (stereo not given) as listed: activity change, negative = inhibition: inactive: 4.85%
`CCc1cccc(C)c1NC(=O)C(c1ccccc1)N1CCC1=O` (stereo not given) as listed: activity change, negative = inhibition: inactive: 16.9%

Continued.

Row | SMILES | activity change, negative = inhibition | Potency
25 | CCOC(=O)c1[nH]c2ccc(OC)cc2c1NC(=S)N1CCN(c2ccc(F)cc2)CC1 | – | inconclusive: 0.928 µM [inhibitor, full curve, poor fit]
26 | CC(C)OC(=O)CSc1nnc(CNc2cccc(Cl)c2)n1C | – | inconclusive: 3.7 µM [inhibitor, partial curve, poor fit]
27 | CCOC(=O)C1(CCCc2ccccc2)CCN(C(=O)Cn2nc(C)nc2C)CC1 | inactive: -9.72% | –
28 | O=C(Cc1ccc(-c2ccccc2)cc1)OCC(=O)N1CCCC1=O | inactive: -27.7% | –
29 | COc1ccc(OC)c(/C=C2\S/C(=N/NC(=O)c3ccc4ccccc4c3)NC2=O)c1 | – | active: 6.57 µM
30 | CCOC(=O)C1(Cc2ccccc2)CCCN(CCO)C1 (stereo not given) | – | inconclusive: 2.08 µM [inhibitor, partial curve, poor fit]
31 | Cc1ccc(C)c(-c2nnc(NC(=O)CS(=O)(=O)c3ccccc3)o2)c1 | – | inconclusive: 14.7 µM [inhibitor, single point]
32 | CCn1c(=O)cc(OCC(=O)N2CCc3ccccc32)c2ccccc21 | – | inconclusive: 10.4 µM [inhibitor, partial curve]
33 | OCCN1CCN(c2ncnc3ccc(Br)cc23)CC1 | – | inconclusive: 10.4 µM [inhibitor, single point]
34 | CCCOP(=O)(c1ccc(N(C)C)cc1)C(Nc1ccccc1)c1ccc(C)cc1 (stereo not given) | – | inconclusive: 11.7 µM [inhibitor, partial curve, poor fit]
35 | COc1ccccc1NC(=S)N(CCCN1CCOCC1)Cc1cccs1 | inactive: 34% | –
36 | CCOC(=O)C1=C(N)OC2=C(C(=O)CCC2)C12C(=O)N1c3c(ccc(C)c32)C(C)=CC1(C)C (stereo not given) | – | active: 11.7 µM
37 | O=C1C(NS(=O)(=O)c2ccc(Br)cc2)=C(N2CCCCC2)C(=O)c2ccccc21 | – | active: 9.28 µM
38 | CCCNCc1cc(OC)c(OCC(=O)Nc2ccccc2)cc1Br | inactive: -15.6% | –
39 | O=C(Cn1ncc2c(=O)oc3ccccc3c21)NCCN1CCN(c2ccccc2F)CC1 | – | inconclusive: 0.738 µM [inhibitor, full curve, poor fit]
40 | CCC(C(=O)OCn1nnc2ccccc2c1=O)c1ccccc1 (stereo not given) | inactive: -3.07% | –
41 | C#CCOC(=O)Nc1cnccc1C(F)(F)F | inactive: 13.2% | –
42 | CC1(C)C2CC=C(/C=N/NC(=O)c3ccc(Cl)cc3)C1C2 (stereo not given) | – | inconclusive: 14.7 µM [inhibitor, partial curve, poor fit]
43 | CCOc1cc(/C=N/O)ccc1OS(=O)(=O)c1ccc(C)cc1 | inactive: 48.9% | –
44 | O=C(Oc1ccc(Br)cc1)c1cccnc1 | inactive: 30.1% | –
45 | N=C1C(c2ccccc2)=C(O)CN1c1cccc(S(=O)(=O)N2CCCCC2)c1 | – | inconclusive: 14.7 µM [inhibitor, single point]
46 | COc1ccc(/C=N/NC(=O)c2ccc(Br)cc2)cc1CN1CCOCC1 | – | inconclusive: 0.329 µM [inhibitor, full curve, poor fit]
47 | COc1ccc(N2CCN(C(=O)c3cc4cc(Cl)ccc4[nH]3)CC2)cc1 | – | inconclusive: 1.85 µM [inhibitor, full curve, poor fit]
48 | CCOc1ccccc1NC(=O)C1CCCN(S(=O)(=O)c2cccc3cccnc23)C1 (stereo not given) | – | inconclusive: 13.1 µM [inhibitor, single point]

Exported with each value named: three of the compounds above.
CCOC(=O)C1(Cc2ccccc2)CCCN(CCO)C1 (stereo not given)
  Potency: inconclusive: 2.08 µM [inhibitor, partial curve, poor fit]
Cc1ccc(C)c(-c2nnc(NC(=O)CS(=O)(=O)c3ccccc3)o2)c1
  Potency: inconclusive: 14.7 µM [inhibitor, single point]
O=C(Cn1ncc2c(=O)oc3ccccc3c21)NCCN1CCN(c2ccccc2F)CC1
  Potency: inconclusive: 0.738 µM [inhibitor, full curve, poor fit]

Later entries

Row | SMILES | activity change, negative = inhibition | Potency
49 | CCn1c(CSc2ncn[nH]2)nc2cc(C(=O)O)ccc21 | – | inconclusive: 4.15 µM [inhibitor, single point]
50 | COc1cc(/C=C(\C#N)C(=O)NC2CCCCC2C)ccc1OS(=O)(=O)c1ccc(C)cc1 (stereo not given) | – | inconclusive: 4.15 µM [inhibitor, partial curve, poor fit]
51 | O=[N+]([O-])c1ccc2c(c1)[nH]c(=S)n2-c1ccccc1 | inactive: 2.11% | –
52 | CC(C)c1cc2c(cc1S(=O)(=O)O)[C@@]1(C)CCC[C@@](C)(C(=O)O)[C@@H]1CC2 | inactive: -4.93% | –
53 | CCc1cc(Br)ccc1N1C(=O)C2CC=CCC2C1=O (stereo not given) | – | inconclusive: 18.5 µM [inhibitor, single point]
54 | COc1ccccc1N(CC(=O)NCCSc1ccc(Cl)cc1)S(C)(=O)=O | – | inconclusive: 18.5 µM [inhibitor, single point]
55 | COc1ccc2[nH]c3c(c2c1)CCN1C(=O)N([C@@H](C)C(=O)NCc2ccco2)C(=O)[C@]31C | – | inconclusive: 20.8 µM [inhibitor, single point]
56 | CCCNC(=O)c1ccc(C2SCC(=O)N2CCc2ccccc2)cc1 (stereo not given) | – | inconclusive: 18.5 µM [inhibitor, single point]
57 | C=C1C(CCl)(CCl)C2(Cl)C(Cl)C(Cl)C1(Cl)C2(Cl)Cl (stereo not given) | – | active: 2.69 µM
58 | COC(=O)c1ccc2nc(NC(=O)C3CCCCC3)sc2c1 | – | inconclusive: 11.7 µM [inhibitor, single point]
59 | Cc1cc(OCC(=O)Nc2ccc3oc(=O)ccc3c2)ccc1Cl | – | inconclusive: 11.7 µM [inhibitor, partial curve, poor fit]
60 | CCCCCC(=O)NNC1CC(=O)N(c2cccc(OCC)c2)C1=O (stereo not given) | – | inconclusive: 4.15 µM [inhibitor, single point]
61 | CCn1c(/C=C2\C(=O)N(C(C)C)c3ccccc32)nc2ccccc2c1=O | – | inconclusive: 1.17 µM [inhibitor, full curve]
62 | CN(C)c1ccc(CN(C(=O)c2cc3ccccc3oc2=O)C2CCS(=O)(=O)C2)cc1 (stereo not given) | – | inconclusive: 18.5 µM [inhibitor, single point]
63 | CCN(CC)CCC(c1ccc(OC)cc1)c1c(O)cc(OC)cc1OC (stereo not given) | – | active: 1.31 µM
64 | O=C(CN1CCN(Cc2ccccc2)CC1)N1N=CCC1c1ccccc1 (stereo not given) | – | inconclusive: 4.15 µM [inhibitor, single point]
65 | CCn1c(=N)n(CC(O)COc2ccc(C)cc2)c2ccccc21 (stereo not given) | – | active: 13.1 µM
66 | CCOc1ccccc1N1CCN(C(=O)CC(C)C)CC1 | inactive: 18.2% | –
67 | CC(=O)N1N=C(c2cccc(Cl)c2)OC1c1ccc(C(C)C)cc1 (stereo not given) | inactive: 0.86% | –
68 | O=C(NC(=S)Nc1ccc(N2CCCCC2)cc1)c1cccs1 | – | inconclusive: 18.5 µM [inhibitor, single point]
69 | O=C(NC1CCCCC1)C(c1ccc2ncccc2c1)N(Cc1ccccc1)C(=O)c1cccs1 (stereo not given) | – | inconclusive: 18.5 µM [inhibitor, single point]
70 | CCOC(=O)CNC(=O)c1sc(NC(=O)c2ccccc2F)nc1C | – | inconclusive: 18.5 µM [inhibitor, single point]
